From patent US20140017259A1 (TAKIS S R L, published 2014)
Results are given in words; binding and its absence hold for the method and conditions named. Some entries that bind do so weakly or less than the wild type.

Sequences of proteins named here, by UniProt entry; tags and fusion partners are left off. A change or cut given only in a name is not applied to a line headed by its entry. Residues count along the entry.
UniProt P21860: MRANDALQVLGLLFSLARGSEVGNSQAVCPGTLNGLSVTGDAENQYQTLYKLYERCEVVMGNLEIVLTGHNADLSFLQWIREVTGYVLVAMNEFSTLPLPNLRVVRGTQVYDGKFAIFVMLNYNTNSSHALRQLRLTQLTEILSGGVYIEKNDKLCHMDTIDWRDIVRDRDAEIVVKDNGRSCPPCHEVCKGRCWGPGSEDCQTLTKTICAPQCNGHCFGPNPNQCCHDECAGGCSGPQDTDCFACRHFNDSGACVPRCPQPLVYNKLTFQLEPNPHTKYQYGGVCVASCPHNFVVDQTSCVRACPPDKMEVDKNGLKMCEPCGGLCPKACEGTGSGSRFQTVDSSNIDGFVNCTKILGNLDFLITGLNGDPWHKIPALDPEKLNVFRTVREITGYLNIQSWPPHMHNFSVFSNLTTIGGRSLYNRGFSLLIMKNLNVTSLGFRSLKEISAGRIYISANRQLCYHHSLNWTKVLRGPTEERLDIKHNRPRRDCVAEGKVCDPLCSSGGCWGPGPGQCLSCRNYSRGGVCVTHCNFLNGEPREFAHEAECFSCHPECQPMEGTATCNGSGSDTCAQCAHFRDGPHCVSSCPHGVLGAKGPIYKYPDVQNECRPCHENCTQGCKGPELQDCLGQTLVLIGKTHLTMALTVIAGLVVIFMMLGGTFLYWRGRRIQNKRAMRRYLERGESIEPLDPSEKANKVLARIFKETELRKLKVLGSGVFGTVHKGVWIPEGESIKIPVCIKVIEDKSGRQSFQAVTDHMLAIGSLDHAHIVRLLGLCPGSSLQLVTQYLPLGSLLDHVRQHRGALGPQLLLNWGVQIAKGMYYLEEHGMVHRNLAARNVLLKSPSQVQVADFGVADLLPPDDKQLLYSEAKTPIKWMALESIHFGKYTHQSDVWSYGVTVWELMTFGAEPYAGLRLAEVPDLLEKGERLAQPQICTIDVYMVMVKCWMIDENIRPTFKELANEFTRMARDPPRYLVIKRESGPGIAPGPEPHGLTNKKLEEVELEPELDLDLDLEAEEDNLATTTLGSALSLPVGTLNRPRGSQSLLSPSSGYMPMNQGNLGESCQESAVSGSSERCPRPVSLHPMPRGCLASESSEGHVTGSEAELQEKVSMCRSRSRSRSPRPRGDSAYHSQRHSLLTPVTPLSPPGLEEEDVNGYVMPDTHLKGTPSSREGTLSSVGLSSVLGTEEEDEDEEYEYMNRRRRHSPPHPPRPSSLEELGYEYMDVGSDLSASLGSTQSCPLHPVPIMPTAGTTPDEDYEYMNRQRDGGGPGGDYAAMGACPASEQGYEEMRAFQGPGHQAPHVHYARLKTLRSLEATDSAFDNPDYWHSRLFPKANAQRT
human HER3: residues 20-1342 of P21860
protein HER3 (human HER3, ELISA of Example 12): residues 20-643 of P21860

Experiments:
[1] = target: protein HER3 (human HER3, ELISA of Example 12) (human) (UniProt P21860); experiment: HER3 ELISA, titration of IgG from 5 to 0.04 per well (Example 12), OD405 [9 B]
[2] = target: protein HER3 (human HER3, ELISA of Example 12) (human) (UniProt P21860); experiment: ELISA, titration of IgG
human HER3 (human) = human HER3 (human) (UniProt P21860); experiment: flow cytometry on CHO cells transiently transfected with human HER3, antibody at 10 µg/ml

B1: Antibody A4 (antibody, V domains shown)
VH: QVQLQQPGSELVRPGASVKLSCKASGYTFTIFWIHWVKQRPGQGLEWIGNIYPGSGGTNYDEKFKSKATLTVDTFSSTAYMQLSSLTSEDSAVYYCTRWGTGKDYWGQGTTLKVSS
VL: QIVLTQSPAIMSASPGEKVTMTCRARSSVSSSYLHWYQQKPGSSPKLWIYSTSNLALGVPARFSGSGSGTSYSLTISSVEAEDAATYYCQQYDSSPFTFGTGTKLEIKR
notes: Murine monoclonal IgG with a kappa light chain, from a hybridoma; also called murine A4; A4 monoclonal antibody
binding [1]: binds
binding [2]: binds
binding (human HER3 (human)): binds

B2: humanized A4 (antibody, V domains shown)
VH: QVQLVQSGAEVKKPGASVKVSCKASGYTFTIFWMHWVRQAPGQGLEWMGNIYPGSGGTNYAQKFQGRVTMTRDTSISTAYMELSRLRSDDTVVYYCTRWGTGKDYWGQGTLVTVSS
VL: EIVLTQSPGTLSLSPGERATLSCRASSSVSSSYLHWYQQKPGQAPRLLIYSTSNRATGIPDRFSGSGSGTDFTLTISRLEPEDFAVYYCQQYDSSPFTFGQGTKLEIKR
binding [1]: binds
binding [2]: binds

B3: Antibody A3 (antibody, V domains shown)
VH: QVTLKESGPGKLQPSQTLSLTCSFSGFSLSTYGMGVGWIRQPLGKGLEWLANIWWNDDKYYNSALKSRLTISKDTSNNQVFLKISSVDTADAATYYCVQIANPYWYFDVWGAGTTVTVSS
VL: DVLMTQTPLSLPVSLGDQASISCRSSQSIVHSYGNTYLEWYLQKPGQSPKLLIYRVSNRFSGVPDRFSGSGSGTDFTLKISRVEAEDLGVYYCFQGSHVPFTFGTGTKLEIKR
notes: Murine monoclonal IgG from a hybridoma of BALB/c mice immunised with HER3 H584F DNA; also called A3 monoclonal antibody
binding (human HER3 (human)): binds
